Measured values: the supplement of paper PMC3334620
Over roughly 33,000 sequences, “E-score (-0.5 to 0.5)” has its median near -0.0014; the highest 2% begin near 0.25. The list shows a part of the results.

biological target: T1, Cad1 (UniProt P24813); experiment: PBM E-score (8-mer binding enrichment) (E-score (-0.5 to 0.5)); higher = stronger / more preferred TF binding; settings: protein concentration: 100 nM; construct: GST-full length
T1 sequence: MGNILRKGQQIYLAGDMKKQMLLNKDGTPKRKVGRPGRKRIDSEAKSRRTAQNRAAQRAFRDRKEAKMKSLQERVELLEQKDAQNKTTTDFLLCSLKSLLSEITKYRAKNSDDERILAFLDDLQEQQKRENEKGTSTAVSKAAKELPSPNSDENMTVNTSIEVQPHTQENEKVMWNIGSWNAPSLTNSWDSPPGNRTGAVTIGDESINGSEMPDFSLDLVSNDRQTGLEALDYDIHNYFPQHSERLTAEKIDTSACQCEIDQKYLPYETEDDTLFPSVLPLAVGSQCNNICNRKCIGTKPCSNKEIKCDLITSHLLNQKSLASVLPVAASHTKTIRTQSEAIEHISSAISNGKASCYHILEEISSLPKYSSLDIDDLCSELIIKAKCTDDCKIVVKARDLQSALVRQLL
In short: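 Bound GST-tagged yeast transcription factors, applied at about 100-200 nM to double-stranded universal all-10-mer Agilent arrays, were detected with fluorescent anti-GST. Scans were normalised with masliner. A modified Wilcoxon-Mann-Whitney statistic, the E-score, was assigned to each ungapped eight-base word pooled with its reverse complement by the Universal PBM Analysis Suite.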

Sequence | PBM E-score
CACGGAGA | 0.0828
AACATGTT | 0.0389
CGGGCACA | -0.15
GCCGATAA | 0.0394
CTCCAGGA | -0.0268
AACTTACC | 0.0034
GACTAAAA | 0.114
ACGTATAG | -0.136
CTAACAAC | 0.115
GTTTCCAA | 0.0109
AGTCCCTA | -0.049
GGGTCAAA | -0.108
ATGCGCAG | -0.0137
ATAGGATA | 0.144
ATAATCAA | 0.157
ATTTGACA | 0.242
CCATCCGA | 0.0418
TATGATAA | 0.236
AAACGCAT | -0.019
TCGGGAAA | 0.163
GTCTAATA | -0.0209
CTAAGGGC | -0.0561
GCAATTTA | 0.244
AGAGTGCC | -0.0764
CGGCGGAG | -0.0139

Exported as comma-separated lines: part of the list above
Sequence,PBM E-score
ACGTATAG,-0.136
CTAACAAC,0.115
GTTTCCAA,0.0109

As a working copy, some entries already given:
Sequence | PBM E-score
CTCCAGGA | -0.0268
AACTTACC | 0.0034
GACTAAAA | 0.114
ACGTATAG | -0.136

Next entries:

Sequence | PBM E-score
CCTGCTCG | -0.198
CTCGACGA | -0.175
CTCAGGGA | -0.205
GCCAATCC | -0.0512
GCACTGGA | -0.105
GATCGCTA | 0.0219
AAAGTAGA | -0.137
ATGCGGCA | 0.0716
GCAGGGGC | -0.0952
AGAAACCG | -0.0713
GTCTGATA | -0.0357
TATTGGAA | -0.133
ACTTTACA | 0.0245
AGGCTCGG | -0.0962
CAGCGCAC | 0.0633
ATTGCCGG | 0.13
CGCTCTAC | -0.0487
CGGATAAA | 0.226
CCCGACTA | -0.0865
CGTCTTTC | -0.125
ACTTTCTG | -0.00023
CGACGAAC | 0.113
CGCTTATA | 0.178
GCAGTAGA | -0.167
AAGCAAAG | -0.102

Sequence | PBM E-score
AGATGCCC | 0.00043
CTGTGTCA | -0.0643
CCTATTAC | -0.0089
CGCGATCA | 0.111
CACCTCTG | -0.0801
ACGACCCT | -0.215
AGGTGGTA | -0.0065
CTCTCCAC | -0.192
ACGTTTCT | -0.133
GCGAATGA | 0.111
AATCCAAC | -0.0721
AAGGCTCG | -0.185
CCCTTCGG | -0.285
ACCGCGGC | 0.0121
ACTACCGC | -0.0705
CAACCTGC | -0.00333
AGACTCCC | -0.408
TGCCTCAA | -0.222
CACTCCAC | -0.0836
ATCTAGGC | -0.102
TCACGAAA | 0.104
CGCCGGCC | -0.124
ACGCTTCG | -0.165
AGACTCCT | -0.0765
GCAGATGC | 0.0377

Sequence | PBM E-score
AATGCTTG | -0.0597
TTGCTAAA | -0.0366
GTCCGCCA | -0.176
ACATTGTA | 0.0745
TAACAAAA | 0.177
CACAGGCG | -0.0182
AAGCCAAT | -0.0633
TCGTTGCA | 0.108
GGCCACAC | -0.0179
ACTGGTAA | 0.163
CATTTCAG | -0.00563
GCCGCAGA | 0.0302
GCTCGCCA | 0.0777
AAACGTGA | -0.024
AGCAGTTG | 0.0783
GCTCCCAA | -0.247
TGCACCAA | -0.196
AGGCTGCC | -0.168
TATGTTCA | 0.123
CATACACC | 0.00325
AACGTTGA | 0.131
AACACACG | -0.0441
CGATTGTA | 0.224
ATTGCCTC | -0.0335
CAAGGGTA | -0.0295

Sequence | PBM E-score
CGGAGAGC | -0.139
AGCTAAAT | -0.0617
GAAAACTA | -0.0161
ATATGGCC | -0.0282
CTCGATTA | 0.276
CGGGCGTC | -0.0378
GCAAGGCA | -0.141
AGAGTTGC | 0.0268
GGAAACAC | 0.189
ACGTGGCT | -0.121
ATCGTGGA | -0.0737
GAAGCGAC | -0.0449
AAGCCTAT | 0.0413
CGAGGATA | 0.00878
AAAGGCGT | -0.124
AACCAAGG | -0.00395
GCCTCAAA | -0.2
GGTTATAA | 0.048
CAACCACG | 0.105
CTGCAGGC | -0.18
GCTAAACA | 0.143
CTATGCCA | -0.143
CGTGAAAG | 0.00161
ACTGCCCA | -0.143
ACCAGCTA | -0.062

Sequence | PBM E-score
ATTATCCC | 0.0728
ATGCGCAA | 0.107
AGATGATC | -0.104
GTCTGCGA | 0.0486
AGTCGTCG | -0.213
TGCAAGCA | -0.109
CGTCATTC | 0.249
CTAAGTGC | -0.0806
CCATAGGG | -0.0667
CATGCTCA | 0.049
AGCCTTCG | -0.153
CATGCCTC | 0.113
GCCGCGTA | -0.0177
AGTAGGCC | 0.011
AACTGGTC | -0.107
AGAGGGTG | -0.0923
GTAGCTAA | -0.0506
CAGGCAGA | -0.011
CTAGCGGC | -0.184
CCTTGCAC | 0.0638
CTGAGCAA | 0.0749
AGCCGAAG | -0.037
GAACGTTC | -0.0713
GAGCGTAC | -0.0811
AGCGATTA | 0.0413

Sequence | PBM E-score
ATTGCCAC | -0.0291
CTGAAAAG | -0.0297
ATCCATGA | -0.2
CAGGACCA | -0.127
CCGTGGCC | -0.193
CGAGCACG | 0.03
AGCGAGAT | 0.142
CTTAAGGC | -0.0602
ATCGCTTC | 0.0333
GCAAACCA | 0.123
CGTAGTTC | -0.214
GGTTAAAC | 0.0202
GCCGAGGC | 0.241
ATTTGGGC | -0.0948
CTGGAGCC | -0.193
AATGGGGT | -0.1
CCTACAGA | -0.188
ATCCTAGG | -0.0518
ACCCCGGT | -0.324
AACCAAAC | -0.102
AGCACACC | -0.0927
ACCAAAAA | 0.278
